Results taken from paper PMC4223012.
Read-outs that look alike come from different tables or passages of the source. These are yes or no findings as the source states them, for the method shown. In cells and extracts the contact can be indirect. Some results given as binding are weak or reduced against the parent protein; the word gives no strength. For some assays here: Sequences can lack the tags named with a protein.

Chains of the proteins cited; added tags and fusions are not shown.
UniProt P84022: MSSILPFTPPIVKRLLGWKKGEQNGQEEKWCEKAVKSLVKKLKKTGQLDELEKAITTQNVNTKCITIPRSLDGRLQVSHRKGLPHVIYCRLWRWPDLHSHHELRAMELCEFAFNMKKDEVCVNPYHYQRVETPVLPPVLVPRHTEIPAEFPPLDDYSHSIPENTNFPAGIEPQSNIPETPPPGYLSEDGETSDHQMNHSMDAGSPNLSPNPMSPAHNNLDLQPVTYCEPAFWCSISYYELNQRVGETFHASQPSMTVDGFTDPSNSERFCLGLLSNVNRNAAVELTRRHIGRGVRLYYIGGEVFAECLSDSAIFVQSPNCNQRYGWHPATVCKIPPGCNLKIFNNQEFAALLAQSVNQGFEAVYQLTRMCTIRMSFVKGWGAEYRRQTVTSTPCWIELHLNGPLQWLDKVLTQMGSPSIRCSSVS
UniProt Q09472: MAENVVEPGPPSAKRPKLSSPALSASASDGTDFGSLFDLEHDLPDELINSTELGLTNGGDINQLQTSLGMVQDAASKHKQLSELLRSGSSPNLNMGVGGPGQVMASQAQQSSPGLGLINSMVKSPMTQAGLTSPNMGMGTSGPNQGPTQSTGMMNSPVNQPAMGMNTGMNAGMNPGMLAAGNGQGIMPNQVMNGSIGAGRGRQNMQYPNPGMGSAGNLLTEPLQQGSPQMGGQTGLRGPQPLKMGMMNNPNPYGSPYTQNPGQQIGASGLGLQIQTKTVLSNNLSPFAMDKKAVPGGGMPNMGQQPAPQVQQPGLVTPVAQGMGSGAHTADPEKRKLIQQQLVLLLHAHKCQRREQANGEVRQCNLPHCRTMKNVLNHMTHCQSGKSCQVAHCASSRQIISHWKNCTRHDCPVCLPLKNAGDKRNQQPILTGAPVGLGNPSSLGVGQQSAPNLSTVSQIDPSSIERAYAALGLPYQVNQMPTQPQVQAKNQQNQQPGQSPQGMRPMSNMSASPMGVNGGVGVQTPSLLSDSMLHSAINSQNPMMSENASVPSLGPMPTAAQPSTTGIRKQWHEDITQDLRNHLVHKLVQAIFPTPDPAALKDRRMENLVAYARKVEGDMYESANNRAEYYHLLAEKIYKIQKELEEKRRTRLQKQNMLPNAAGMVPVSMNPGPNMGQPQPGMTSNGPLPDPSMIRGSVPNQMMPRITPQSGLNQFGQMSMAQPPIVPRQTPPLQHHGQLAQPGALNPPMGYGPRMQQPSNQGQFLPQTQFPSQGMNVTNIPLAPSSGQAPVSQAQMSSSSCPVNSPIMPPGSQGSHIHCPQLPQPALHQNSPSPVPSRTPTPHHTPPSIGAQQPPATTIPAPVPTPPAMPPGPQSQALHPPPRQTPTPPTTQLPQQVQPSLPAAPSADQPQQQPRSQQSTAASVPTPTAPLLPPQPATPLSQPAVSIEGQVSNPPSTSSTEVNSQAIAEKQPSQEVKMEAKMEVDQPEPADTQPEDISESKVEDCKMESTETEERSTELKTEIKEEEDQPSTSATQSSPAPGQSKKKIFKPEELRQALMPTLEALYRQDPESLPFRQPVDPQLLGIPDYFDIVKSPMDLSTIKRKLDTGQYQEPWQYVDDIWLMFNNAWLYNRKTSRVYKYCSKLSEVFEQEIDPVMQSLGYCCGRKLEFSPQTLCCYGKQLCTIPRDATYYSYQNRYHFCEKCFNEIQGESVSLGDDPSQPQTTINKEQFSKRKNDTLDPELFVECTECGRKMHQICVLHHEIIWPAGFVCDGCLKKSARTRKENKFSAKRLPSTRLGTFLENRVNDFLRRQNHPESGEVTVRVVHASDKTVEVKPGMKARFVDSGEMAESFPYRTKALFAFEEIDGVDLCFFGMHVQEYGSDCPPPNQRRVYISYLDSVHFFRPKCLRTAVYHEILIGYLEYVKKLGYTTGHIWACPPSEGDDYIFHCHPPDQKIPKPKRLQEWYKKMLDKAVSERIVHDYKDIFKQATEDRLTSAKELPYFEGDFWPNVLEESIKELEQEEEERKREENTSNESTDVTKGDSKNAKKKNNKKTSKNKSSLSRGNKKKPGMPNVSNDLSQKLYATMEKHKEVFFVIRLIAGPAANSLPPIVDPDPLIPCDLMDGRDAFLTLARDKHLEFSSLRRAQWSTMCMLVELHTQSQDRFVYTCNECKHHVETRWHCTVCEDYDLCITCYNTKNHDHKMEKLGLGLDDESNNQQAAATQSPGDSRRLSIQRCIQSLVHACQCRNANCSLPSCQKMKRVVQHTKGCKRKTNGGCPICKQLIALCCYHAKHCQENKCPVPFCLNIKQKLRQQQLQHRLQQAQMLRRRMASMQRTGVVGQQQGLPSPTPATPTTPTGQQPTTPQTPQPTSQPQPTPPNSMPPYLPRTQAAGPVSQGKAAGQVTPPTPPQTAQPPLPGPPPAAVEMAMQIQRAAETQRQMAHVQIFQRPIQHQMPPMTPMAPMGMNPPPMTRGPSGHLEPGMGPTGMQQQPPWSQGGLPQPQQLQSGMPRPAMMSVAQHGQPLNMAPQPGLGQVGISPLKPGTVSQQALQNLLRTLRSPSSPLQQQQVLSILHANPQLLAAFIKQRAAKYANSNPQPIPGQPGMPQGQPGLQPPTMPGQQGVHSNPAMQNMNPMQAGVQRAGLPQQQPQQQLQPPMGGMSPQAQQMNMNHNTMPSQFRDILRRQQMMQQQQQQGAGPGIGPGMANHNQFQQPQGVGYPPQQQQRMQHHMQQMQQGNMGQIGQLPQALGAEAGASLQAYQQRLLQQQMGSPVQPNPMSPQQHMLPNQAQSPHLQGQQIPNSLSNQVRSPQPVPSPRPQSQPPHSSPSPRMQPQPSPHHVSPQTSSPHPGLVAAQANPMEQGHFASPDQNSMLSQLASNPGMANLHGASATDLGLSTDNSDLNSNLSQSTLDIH

Key:
[1] = target: Myc-tagged Smad3 (UniProt P84022); assay: co-IP; HEK293T cells co-transfected; lysis buffer 50 mM Tris pH 8.0, 150 mM NaCl, 5 mM EDTA, 50 mM NaF, 0.1% NP-40; IP with anti-Myc antibody, protein A or G Sepharose, 2 h at 4°C; western blotting; for p300 with or without TGF-β1 (2 ng/ml) and with or without FLAG-FOSL2
[2] = target: endogenous Smad3 (human (endogenous in A549)) (UniProt P84022); assay: co-IP; A549 cells transfected with siFOSL2 or control, treated with TGF-β1 (2 ng/ml) as indicated; precipitating antibody not told
[3] = target: GST-Smad3 (UniProt P84022); assay: pull-down; GST-Smad3 or GST alone incubated with precleared whole-cell lysate of HEK 293T cells overexpressing Flag-FOSL2, glutathione Sepharose beads, 2 hours at 4°C, five washes with GST-binding buffer; immunoblotting; only the target purified
[4] = target: Myc-tagged Smad3 (UniProt P84022); assay: co-IP; HEK293T cells co-transfected; lysis buffer 50 mM Tris pH 8.0, 150 mM NaCl, 5 mM EDTA, 50 mM NaF, 0.1% NP-40; IP with anti-Myc antibody, protein A or G Sepharose, 2 h at 4°C; western blotting; for p300 with or without TGF-β1 (2 ng/ml) and with or without FLAG-FOSL2; remark: listed apart in the source
[5] = target: endogenous Smad3 (human (endogenous in A549)) (UniProt P84022); assay: co-IP; endogenous proteins in A549 cells with TGF-β1 (2 ng/ml) treatment; IP with anti-Smad3 antibody or anti-IgG antibody; western blotting

## HA-tagged p300 (from UniProt Q09472 1-2414)
[1]
  binding: binds

## p300 in A549 cells (from UniProt Q09472 1-2414)
[2]
  binding: binds

B1: FLAG-tagged FOSL2 (protein, UniProt P15408 1-326)
chain: MYQDYPGNFDTSSRGSSGSPAHAESYSSGGGGQQKFRVDMPGSGSAFIPTINAITTSQDLQWMVQPTVITSMSNPYPRSHPYSPLPGLASVPGHMALPRPGVIKTIGTTVGRRRRDEQLSPEEEEKRRIRRERNKLAAAKCRNRRRELTEKLQAETEELEEEKSGLQKEIAELQKEKEKLEFMLVAHGPVCKISPEERRSPPAPGLQPMRSGGGSVGAVVVKQEPLEEDSPSSSSAGLDKAQRSVIKPISIAGGFYGEEPLHTPIVVTSTPAVTPGTSNLVFTYPSVLEQESPASPSESCSKAHRRSSSSGDQSSDSLNSPTLLAL
[3]
  binding: binds
[4]
  binding: binds

B2: endogenous FOSL2 (protein, UniProt P15408 1-326)
chain: MYQDYPGNFDTSSRGSSGSPAHAESYSSGGGGQQKFRVDMPGSGSAFIPTINAITTSQDLQWMVQPTVITSMSNPYPRSHPYSPLPGLASVPGHMALPRPGVIKTIGTTVGRRRRDEQLSPEEEEKRRIRRERNKLAAAKCRNRRRELTEKLQAETEELEEEKSGLQKEIAELQKEKEKLEFMLVAHGPVCKISPEERRSPPAPGLQPMRSGGGSVGAVVVKQEPLEEDSPSSSSAGLDKAQRSVIKPISIAGGFYGEEPLHTPIVVTSTPAVTPGTSNLVFTYPSVLEQESPASPSESCSKAHRRSSSSGDQSSDSLNSPTLLAL
[5]
  binding: binds
